Some results were stated once for a whole list of compounds, not compound by compound.
Tests used:
Format in all cases: in vivo
[1] = system: yellow fever mosquito (Aedes aegypti); conditions: 800 ppm; larval mortality after 2 days
[2] = system: boll weevil (Anthonomus grandis); experiment: Example B.3: Action on boll weevil (Anthonomus grandis), egg and larval mortality on insect diet; conditions: 800 ppm; egg and larval mortality after 5 days
[3] = system: Silverleaf whitefly (Bemisia argentifolii) (adults); experiment: Example B.4: Action on silverleaf whitefly (Bemisia argentifolii) adults on sprayed cotton plants; conditions: 300 ppm; 3 days after treatment
Experimental: The active compounds were formulated by a Tecan liquid handler in 100% cyclohexanone as a 10,000-ppm solution supplied in tubes. The 10,000-ppm solution was serially diluted in 100% cyclohexanone to make interim solutions. These served as stock solutions for which final dilutions were made by the Tecan in 50% acetone:50% water (v/v) into 5 or 10 ml glass vials. A nonionic surfactant (Kinetic®) was included in the solution at a volume of 0.01% (v/v). The vials were then inserted into an automated electrostatic sprayer equipped with an atomizing nozzle for application to plants/insects.
Cotton plants at the cotyledon stage (one plant per pot) were sprayed by an automated electrostatic plant sprayer equipped with an atomizing spray nozzle. The plants were dried in the sprayer fume hood and then removed from the sprayer. Each pot was placed into a plastic cup and about 10 to 12 whitefly adults (approximately 3-5 days old) were introduced. The insects were collected using an aspirator and a nontoxic Tygon® tubing connected to a barrier pipette tip. The tip, containing the collected insects, was then gently inserted into the soil containing the treated plant, allowing insects to crawl out of the tip to reach the foliage for feeding. Cups were covered with a reusable screened lid. Test plants were maintained in a growth room at about 25° C. and about 20-40% relative humidity for 3 days, avoiding direct exposure to fluorescent light (24-hour photoperiod) to prevent trapping of heat inside the cup. Mortality was assessed 3 days after treatment, compared to untreated control plants.

[4] = system: tobacco budworm (Heliothis virescens); experiment: Example B.5: Action on tobacco budworm (Heliothis virescens), egg and larval mortality on insect diet; conditions: 800 ppm; egg and larval mortality after 5 days
[5] = system: Southern armyworm (Spodoptera eridania), 2nd instar larvae; experiment: Example B.7: Action on southern armyworm (Spodoptera eridania), 2nd instar larvae on sprayed lima bean plants; conditions: 300 ppm; 4 days after treatment
[6] = system: Orchid thrips (Dichromothrips corbetti); experiment: Example B.2: Action on orchid thrips (Dichromothrips corbetti), floral-immersion technique; conditions: 300 ppm; 72 hours after treatment
[7] = system: Diamond back moth (Plutella xylostella); experiment: Example B.6: Action on diamond back moth (Plutella xylostella), cabbage leaf dip, 3rd instar larvae; conditions: 300 ppm; 72 hours after treatment
[8] = system: Diamond back moth (Plutella xylostella); experiment: Example B.8: Action on diamond back moth (Plutella xylostella), egg and larval mortality on insect diet in microtiter plates; conditions: 800 ppm; egg and larval mortality after 5 days

Compound: CC(=O)OCS/C(=N/c1cc(C)ccc1C(C)C)NC(=O)Nc1ccc(-c2nc(N(C)C(=O)c3ccc(OC(F)(F)F)cc3)n(C)n2)cc1 [Example C-32]
- mortality in comparison with untreated controls [1]: at least 50%
- mortality in comparison with untreated controls [2]: at least 75%
- mortality in comparison with untreated controls [3]: at least 75%
- mortality in comparison with untreated controls [4]: at least 75%
- mortality in comparison with untreated controls [5]: at least 75%

Compound: CC(C)c1ccc(C2CC2)cc1N1C(=O)CS/C1=N\C(=O)Nc1ccc(-c2nn(C)c(NC(=O)c3ccc(OC(F)(F)F)cc3)c2C#N)cc1 [Example C-35]
- mortality in comparison with untreated controls [1]: at least 50%
- mortality in comparison with untreated controls [6]: at least 75%
- mortality in comparison with untreated controls [2]: at least 75%
- mortality in comparison with untreated controls [4]: at least 75%
- mortality in comparison with untreated controls [7]: at least 75%
- mortality in comparison with untreated controls [5]: at least 75%

Compound: CC(=O)OCS/C(=N/c1cc(C2CC2)ccc1C(C)C)NC(=O)Nc1ccc(-c2nn(C)c(NC(=O)c3ccc(OC(F)(F)F)cc3)c2C)cc1 [Example C-36]
- mortality in comparison with untreated controls [1]: at least 50%
- mortality in comparison with untreated controls [6]: at least 75%
- mortality in comparison with untreated controls [2]: at least 75%
- mortality in comparison with untreated controls [4]: at least 75%
- mortality in comparison with untreated controls [7]: at least 75%
- mortality in comparison with untreated controls [5]: at least 75%

Compound: Cc1ccc(C(C)C)c(N2C(=O)CS/C2=N\C(=O)Nc2ccc(-c3nn(C)c(NC(=O)c4ccc(OC(F)(F)F)cc4)c3C)cc2F)c1 [Example C-40]
- mortality in comparison with untreated controls [1]: at least 50%
- mortality in comparison with untreated controls [6]: at least 75%
- mortality in comparison with untreated controls [2]: at least 75%
- mortality in comparison with untreated controls [4]: at least 75%
- mortality in comparison with untreated controls [7]: at least 75%
- mortality in comparison with untreated controls [5]: at least 75%

Compound: Cc1ccc(C(C)C)c(N2C(=O)CS/C2=N\C(=O)Nc2ccc(-c3nn(C)c(N(C)C(=O)c4ccc(OC(F)(F)F)cc4)c3C#N)cc2)c1 [Example C-42]
- mortality in comparison with untreated controls [1]: at least 50%
- mortality in comparison with untreated controls [6]: at least 75%
- mortality in comparison with untreated controls [2]: at least 75%
- mortality in comparison with untreated controls [4]: at least 75%
- mortality in comparison with untreated controls [7]: at least 75%
- mortality in comparison with untreated controls [5]: at least 75%

Compound: CC(C)c1ccc(C2CC2)cc1N1C(=O)CS/C1=N\C(=O)Nc1ccc(-c2nn(C)c(N(C)C(=O)c3ccc(OC(F)(F)F)cc3)c2C#N)cc1 [Example C-43]
- mortality in comparison with untreated controls [1]: at least 50%
- mortality in comparison with untreated controls [6]: at least 75%
- mortality in comparison with untreated controls [2]: at least 75%
- mortality in comparison with untreated controls [4]: at least 75%
- mortality in comparison with untreated controls [7]: at least 75%
- mortality in comparison with untreated controls [5]: at least 75%

Compound: Cc1ccc(C(C)C)c(N2C(=O)CS/C2=N\C(=O)Nc2ccc(-c3nn(C)c(NC(=O)c4ccc(OC(F)(F)F)cc4)c3C)cc2C)c1 [Example C-44]
- mortality in comparison with untreated controls [1]: at least 50%
- mortality in comparison with untreated controls [6]: at least 75%
- mortality in comparison with untreated controls [2]: at least 75%
- mortality in comparison with untreated controls [4]: at least 75%
- mortality in comparison with untreated controls [7]: at least 75%
- mortality in comparison with untreated controls [5]: at least 75%

Compound: Cc1c(-c2ccc(NC(=O)/N=C3\SCC(=O)N3c3cc(C4CC4)ccc3C(C)C)cc2)nn(C)c1N(C)C(=O)c1ccc(OC(F)(F)F)cc1 [Example C-45]
- mortality in comparison with untreated controls [1]: at least 50%
- mortality in comparison with untreated controls [6]: at least 75%
- mortality in comparison with untreated controls [2]: at least 75%
- mortality in comparison with untreated controls [4]: at least 75%
- mortality in comparison with untreated controls [7]: at least 75%
- mortality in comparison with untreated controls [5]: at least 75%

Compound: Cc1c(-c2ccc(NC(=O)/N=C3\SCC(=O)N3c3cc(N(C)C)ccc3C(C)C)cc2)nn(C)c1N(C)C(=O)c1ccc(OC(F)(F)F)cc1 [Example C-48]
- mortality in comparison with untreated controls [1]: at least 50%
- mortality in comparison with untreated controls [6]: at least 75%
- mortality in comparison with untreated controls [2]: at least 75%
- mortality in comparison with untreated controls [4]: at least 75%
- mortality in comparison with untreated controls [7]: at least 75%
- mortality in comparison with untreated controls [5]: at least 75%

Compound: Cc1ccc(C(C)C)c(N2C(=O)CS/C2=N\C(=O)Nc2ccc(-c3nn(C)c(NC(=O)c4ccc(C#N)cc4F)c3C)cc2)c1 [Example C-49]
- mortality in comparison with untreated controls [1]: at least 50%
- mortality in comparison with untreated controls [6]: at least 75%
- mortality in comparison with untreated controls [2]: at least 75%
- mortality in comparison with untreated controls [4]: at least 75%
- mortality in comparison with untreated controls [7]: at least 75%
- mortality in comparison with untreated controls [5]: at least 75%

Compound: COc1cc(NC(=O)/N=C2\SCC(=O)N2c2cc(C)ccc2C(C)C)ccc1-c1nn(C)c(NC(=O)c2ccc(OC(F)(F)F)cc2)c1C [Example C-55]
- mortality in comparison with untreated controls [1]: at least 50%
- mortality in comparison with untreated controls [6]: at least 75%
- mortality in comparison with untreated controls [2]: at least 75%
- mortality in comparison with untreated controls [4]: at least 75%
- mortality in comparison with untreated controls [7]: at least 75%
- mortality in comparison with untreated controls [5]: at least 75%

Compound: Cc1ccc(C(C)C)c(N2C(=O)CS/C2=N\C(=O)Nc2ccc(-c3nn(C)c(N(C)C(=O)c4ccc(OC(F)(F)F)cc4)c3C)c(Cl)c2)c1 [Example C-56]
- mortality in comparison with untreated controls [1]: at least 50%
- mortality in comparison with untreated controls [6]: at least 75%
- mortality in comparison with untreated controls [2]: at least 75%
- mortality in comparison with untreated controls [4]: at least 75%
- mortality in comparison with untreated controls [7]: at least 75%
- mortality in comparison with untreated controls [5]: at least 75%

Compound: CCN(C(=O)c1ccc(OC(F)(F)F)cc1)c1c(C)c(-c2ccc(NC(=O)/N=C3\SCC(=O)N3c3cc(C)ccc3C(C)C)cc2Cl)nn1C [Example C-59]
- mortality in comparison with untreated controls [1]: at least 50%
- mortality in comparison with untreated controls [6]: at least 75%
- mortality in comparison with untreated controls [2]: at least 75%
- mortality in comparison with untreated controls [3]: at least 75%
- mortality in comparison with untreated controls [4]: at least 75%
- mortality in comparison with untreated controls [5]: at least 75%
- mortality in comparison with untreated controls [8]: at least 75%

Compound: Cc1ccc(C(C)C)c(N2C(=O)CS/C2=N\C(=O)Nc2ccc(-c3nn(C)c(N(CC#N)C(=O)c4ccc(OC(F)(F)F)cc4)c3C)c(Cl)c2)c1 [Example C-60]
- mortality in comparison with untreated controls [1]: at least 50%
- mortality in comparison with untreated controls [6]: at least 75%
- mortality in comparison with untreated controls [2]: at least 75%
- mortality in comparison with untreated controls [3]: at least 75%
- mortality in comparison with untreated controls [4]: at least 75%
- mortality in comparison with untreated controls [5]: at least 75%
- mortality in comparison with untreated controls [8]: at least 75%

Compound: Cc1ccc(C(C)C)c(N2C(=O)CS/C2=N\C(=O)Nc2ccc(-c3nc(NC(=O)c4ccc(OC(F)(F)F)cc4)n(C)n3)cc2C)c1 [Example C-61]
- mortality in comparison with untreated controls [1]: at least 50%
- mortality in comparison with untreated controls [6]: at least 75%
- mortality in comparison with untreated controls [2]: at least 75%
- mortality in comparison with untreated controls [3]: at least 75%
- mortality in comparison with untreated controls [4]: at least 75%
- mortality in comparison with untreated controls [5]: at least 75%
- mortality in comparison with untreated controls [8]: at least 75%

Compound: Cc1ccc(C(C)C)c(N2C(=O)CS/C2=N\C(=O)Nc2ccc(-c3nn(C)c(NC(=O)c4ccc(OC(F)(F)F)cc4)c3C#N)cc2Cl)c1 [Example C-65]
- mortality in comparison with untreated controls [1]: at least 50%
- mortality in comparison with untreated controls [6]: at least 75%
- mortality in comparison with untreated controls [2]: at least 75%
- mortality in comparison with untreated controls [3]: at least 75%
- mortality in comparison with untreated controls [4]: at least 75%
- mortality in comparison with untreated controls [5]: at least 75%
- mortality in comparison with untreated controls [8]: at least 75%

Compound: Cc1ccc(C(C)C)c(N2C(=O)CSC2=NC(=O)Nc2ccc(-c3nn(C)c(N(CC4CC4)C(=O)c4ccc(OC(F)(F)F)cc4)c3C)cc2Cl)c1 [Example C-67]
- mortality in comparison with untreated controls [1]: at least 50%
- mortality in comparison with untreated controls [6]: at least 75%
- mortality in comparison with untreated controls [2]: at least 75%
- mortality in comparison with untreated controls [3]: at least 75%
- mortality in comparison with untreated controls [4]: at least 75%
- mortality in comparison with untreated controls [5]: at least 75%
- mortality in comparison with untreated controls [8]: at least 75%

From US20260055096A1, “AZOLE PESTICIDAL COMPOUNDS” (BASF SE, priority 2022, published 2026)
